Data published in PMC3308990.
No constants are given. Whether binding was seen depends on the method and setting. In cells and extracts the contact can be indirect. Here binding means that the protein was enriched with, or labelled near, the bait; the list need not be complete.

Sequences of proteins named here, by UniProt entry; tags and fusion partners are left off. A change or cut given only in a name is not applied to a line headed by its entry.
UniProt Q9D198: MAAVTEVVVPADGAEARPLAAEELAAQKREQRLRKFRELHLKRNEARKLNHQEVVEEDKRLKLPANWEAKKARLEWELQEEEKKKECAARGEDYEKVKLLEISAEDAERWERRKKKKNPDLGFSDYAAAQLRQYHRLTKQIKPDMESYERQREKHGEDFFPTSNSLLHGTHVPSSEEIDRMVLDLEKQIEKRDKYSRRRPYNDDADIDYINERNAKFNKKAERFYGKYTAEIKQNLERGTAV
UniProt O88569: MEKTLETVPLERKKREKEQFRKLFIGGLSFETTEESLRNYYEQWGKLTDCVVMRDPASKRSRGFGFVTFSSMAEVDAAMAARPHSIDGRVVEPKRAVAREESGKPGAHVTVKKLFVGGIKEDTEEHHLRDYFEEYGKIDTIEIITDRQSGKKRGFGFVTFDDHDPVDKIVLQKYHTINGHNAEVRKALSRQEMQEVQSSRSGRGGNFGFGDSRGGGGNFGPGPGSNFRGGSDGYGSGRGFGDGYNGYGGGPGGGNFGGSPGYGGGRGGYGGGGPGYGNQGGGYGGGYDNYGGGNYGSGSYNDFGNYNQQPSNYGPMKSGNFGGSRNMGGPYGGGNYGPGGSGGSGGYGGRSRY
UniProt Q8VEK3: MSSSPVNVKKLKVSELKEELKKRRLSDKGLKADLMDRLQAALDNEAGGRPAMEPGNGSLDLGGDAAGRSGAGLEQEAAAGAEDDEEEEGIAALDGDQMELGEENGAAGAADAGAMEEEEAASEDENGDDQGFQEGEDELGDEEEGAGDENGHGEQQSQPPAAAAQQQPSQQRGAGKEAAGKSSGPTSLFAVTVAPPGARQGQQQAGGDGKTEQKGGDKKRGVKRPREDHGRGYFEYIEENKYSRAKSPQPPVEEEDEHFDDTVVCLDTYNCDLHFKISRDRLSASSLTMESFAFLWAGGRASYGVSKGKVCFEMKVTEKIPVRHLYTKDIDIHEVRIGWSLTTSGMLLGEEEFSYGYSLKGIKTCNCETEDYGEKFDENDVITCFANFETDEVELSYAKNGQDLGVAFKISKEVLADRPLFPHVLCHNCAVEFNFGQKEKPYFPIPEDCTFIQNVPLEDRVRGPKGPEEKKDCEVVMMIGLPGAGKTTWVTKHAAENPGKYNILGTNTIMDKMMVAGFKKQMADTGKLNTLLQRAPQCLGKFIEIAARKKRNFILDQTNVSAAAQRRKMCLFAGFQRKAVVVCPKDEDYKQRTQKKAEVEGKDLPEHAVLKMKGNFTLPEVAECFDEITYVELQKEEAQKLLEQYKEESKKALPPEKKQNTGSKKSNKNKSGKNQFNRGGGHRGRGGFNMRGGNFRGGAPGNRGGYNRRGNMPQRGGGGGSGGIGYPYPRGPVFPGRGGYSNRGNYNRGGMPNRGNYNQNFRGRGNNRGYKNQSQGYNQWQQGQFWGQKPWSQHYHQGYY

Target: HA-mp29 (mouse) (UniProt Q9D198)
Experiment: affinity purification with mass spectrometry; HA-mp29 immunoprecipitated complexes analysed by mass spectrometry; cells and conditions not told for this experiment

| Substance | binding |
| --- | --- |
| hnRNPA2 (from UniProt O88569 1-353) | binds |
| hnRNPU (from UniProt Q8VEK3 1-800) | binds |
